PubChem BioAssay AID743121, NCATS | 2013
In all, the deposit lists about 26,000 reagents; below is a part drawn at random. 167 of all reagents (0.63%) were called active. 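Calls are per gene from RSA p-values that are not deposited; an individual active-marked siRNA can sensitise only weakly.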 Reagents against one gene are numbered here. Further read-outs or replicates are left out here.

Purpose: 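Partners whose loss is lethal together with topoisomerase I blockade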 (primary screen)
Cells: MDA-MB-231 cells, a human breast cancer line
Reagents: single siRNA against human genes, 20 nM siRNA (0.8 pmol per well)
Time to read-out: 120 h (drug added 48 h after transfection, read 72 h later)
Treatment: camptothecin 20 nM (about EC30) for 72 h; vehicle 0.1% DMSO in parallel plates
Measured: 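Cell viability by ATP luminescence (CellTiter-Glo) as % of non-targeting siRNA wells, and the log2 ratio of viability without drug over viability with camptothecin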
Direction: log2 vehicle/camptothecin viability: higher = stronger sensitisation to camptothecin; viability with camptothecin: higher = more viable cells
Units: viability with camptothecin in % of control
Rule for the call: 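Each gene scored by redundant siRNA activity (RSA) over its individual siRNA ratios; a gene is called active at p < 0.001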

For CELA2B (GeneID 51032) #1, the entry reads log2 vehicle/camptothecin viability 1.26; viability with camptothecin 13.6; inactive. Against CELA2B (GeneID 51032) #2, the values are log2 vehicle/camptothecin viability -0.255; viability with camptothecin 132; inactive. CELA2B (GeneID 51032) #3 gave log2 vehicle/camptothecin viability -0.349; viability with camptothecin 80.3; inactive. CELA2B (GeneID 51032) #4 showed log2 vehicle/camptothecin viability 0.0158; viability with camptothecin 14; inactive. After knock-down of NRIP3 (GeneID 56675) #1 the results were log2 vehicle/camptothecin viability -0.0175; viability with camptothecin 86.9; inactive. Against NRIP3 (GeneID 56675) #2 the deposit lists log2 vehicle/camptothecin viability -0.317; viability with camptothecin 77.8; inactive.

Against NRIP3 (GeneID 56675) #3, the values are log2 vehicle/camptothecin viability -0.264; viability with camptothecin 70.9; inactive. Knock-down of UBQLN1 (GeneID 29979) #1 gave: log2 vehicle/camptothecin viability -0.0574; viability with camptothecin 107; inactive. UBQLN1 (GeneID 29979) #2 scored log2 vehicle/camptothecin viability -0.244; viability with camptothecin 78; inactive. Silencing of UBQLN1 (GeneID 29979) #3 gave: log2 vehicle/camptothecin viability -0.145; viability with camptothecin 54.3; inactive. UBQLN1 (GeneID 29979) #4 scored log2 vehicle/camptothecin viability -0.392; viability with camptothecin 49.4; inactive. CAPN6 (GeneID 827) #1 gave log2 vehicle/camptothecin viability -0.0806; viability with camptothecin 73.6; inactive.

CAPN6 (GeneID 827) #2 showed log2 vehicle/camptothecin viability -0.282; viability with camptothecin 72.5; inactive. CAPN6 (GeneID 827) #3 gave log2 vehicle/camptothecin viability -0.235; viability with camptothecin 103; inactive. With knock-down of USP44 (GeneID 84101) #1, the screen gave log2 vehicle/camptothecin viability -0.0859; viability with camptothecin 94.4; inactive. Depletion of USP44 (GeneID 84101) #2 resulted in: log2 vehicle/camptothecin viability -0.285; viability with camptothecin 81.1; inactive. With knock-down of USP44 (GeneID 84101) #3, the screen gave log2 vehicle/camptothecin viability -0.343; viability with camptothecin 63.5; inactive. USP44 (GeneID 84101) #4 showed log2 vehicle/camptothecin viability -0.808; viability with camptothecin 69.1; inactive.

After knock-down of PTMA (GeneID 5757) #1, the screen gave log2 vehicle/camptothecin viability -0.258; viability with camptothecin 104; inactive. Silencing of PTMA (GeneID 5757) #2 came out at: log2 vehicle/camptothecin viability 0.0998; viability with camptothecin 51.1; inactive. PTMA (GeneID 5757) #3 scored log2 vehicle/camptothecin viability -0.024; viability with camptothecin 78.7; inactive. PTMA (GeneID 5757) #4 scored log2 vehicle/camptothecin viability -0.188; viability with camptothecin 57.3; inactive. After knock-down of PPP2R5B (GeneID 5526) #1 the results were log2 vehicle/camptothecin viability -0.134; viability with camptothecin 95.6; inactive. Silencing of PPP2R5B (GeneID 5526) #2 gave: log2 vehicle/camptothecin viability 0.671; viability with camptothecin 6.5; inactive.

PPP2R5B (GeneID 5526) #3 scored log2 vehicle/camptothecin viability -0.517; viability with camptothecin 75.6; inactive. After knock-down of PPP2R5B (GeneID 5526) #4, the record shows log2 vehicle/camptothecin viability 0.117; viability with camptothecin 104; inactive.

Copied from the list:
Under “outcome”, CAPN6 (GeneID 827) #2 is entered as inactive
PTMA (GeneID 5757) #1, outcome → inactive
UBQLN1 (GeneID 29979) #3, outcome: inactive
Value of USP44 (GeneID 84101) #1 under “log2 vehicle/camptothecin viability”: -0.0859
Under “viability with camptothecin”, USP44 (GeneID 84101) #4 reads 69.1
PPP2R5B (GeneID 5526) #2, viability with camptothecin: 6.5

Continued.
After knock-down of TPCN1 (GeneID 53373) #1 the results were log2 vehicle/camptothecin viability 0.305; viability with camptothecin 81.2; inactive. With knock-down of TPCN1 (GeneID 53373) #2, the screen gave log2 vehicle/camptothecin viability -0.203; viability with camptothecin 102; inactive. Knock-down of TPCN1 (GeneID 53373) #3 resulted in: log2 vehicle/camptothecin viability -0.283; viability with camptothecin 123; inactive. Depletion of TPCN1 (GeneID 53373) #4 gave: log2 vehicle/camptothecin viability -0.0299; viability with camptothecin 106; inactive. With knock-down of FOXC1 (GeneID 2296) #1 the results were log2 vehicle/camptothecin viability -0.272; viability with camptothecin 50.3; inactive. Depletion of FOXC1 (GeneID 2296) #2 gave: log2 vehicle/camptothecin viability -0.335; viability with camptothecin 75.5; inactive.

Against FOXC1 (GeneID 2296) #3, the entry reads log2 vehicle/camptothecin viability 0.00914; viability with camptothecin 91.9; inactive. FOXC1 (GeneID 2296) #4 showed log2 vehicle/camptothecin viability -0.227; viability with camptothecin 75.7; inactive. Silencing of UNC13A (GeneID 23025) #1 came out at: log2 vehicle/camptothecin viability 0.0739; viability with camptothecin 74.4; inactive. For UNC13A (GeneID 23025) #2, the entry reads log2 vehicle/camptothecin viability -0.0924; viability with camptothecin 109; inactive. With knock-down of UNC13A (GeneID 23025) #3, the screen gave log2 vehicle/camptothecin viability -0.271; viability with camptothecin 92.1; inactive. UNC13A (GeneID 23025) #4 showed log2 vehicle/camptothecin viability -0.494; viability with camptothecin 81.2; inactive.

After knock-down of CHRNA1 (GeneID 1134) #1, the screen gave log2 vehicle/camptothecin viability -0.128; viability with camptothecin 75.6; inactive. Silencing of CHRNA1 (GeneID 1134) #2 gave: log2 vehicle/camptothecin viability -0.534; viability with camptothecin 81.1; inactive. Against CHRNA1 (GeneID 1134) #3, the entry reads log2 vehicle/camptothecin viability 0.192; viability with camptothecin 68.5; inactive. CHRNA1 (GeneID 1134) #4 gave log2 vehicle/camptothecin viability -0.312; viability with camptothecin 57.5; inactive. With knock-down of PTPDC1 (GeneID 138639) #1, the record shows log2 vehicle/camptothecin viability -0.544; viability with camptothecin 70.9; inactive. For PTPDC1 (GeneID 138639) #2, the values are log2 vehicle/camptothecin viability -0.467; viability with camptothecin 91.3; inactive.

After knock-down of PTPDC1 (GeneID 138639) #3 the results were log2 vehicle/camptothecin viability -0.174; viability with camptothecin 71.7; inactive. For PTPDC1 (GeneID 138639) #4 the deposit lists log2 vehicle/camptothecin viability -0.196; viability with camptothecin 86.3; inactive.
